Values of other authors as cited in patent publication US5153173A, “N-acyl derivatives of the peptidoglycan monomer, pharmaceutically acceptable salts thereof, their preparation and use as immunomodulators and immunoadjuvants” (Pliva Farmaceutska, priority 1990, dated 1992).
At least one compound was matched to its structure with a doubt left.

What was measured:
[1] = cited from earlier work
[2] = cited from earlier work; remark: listed apart in the source

CC(=O)NC1C(OC2C(CO)OC(O)C(NC(C)=O)C2OC(C)C(=O)NC(C)C(=O)NC(CCC(=O)NC(CCCC(N)C(=O)O)C(=O)NC(C)C(=O)NC(C)C(=O)O)C(N)=O)OC(CO)C(O)C1O (stereo not drawn) [PGM, peptidoglycan monomer]
penetration through the lipophilic membranes in the organism [1]: not able to penetrate | pyrogenicity [2]: apyrogenous | toxicity [2]: nontoxic
